According to patent publication US4937332A, “Cephalosporin derivatives” (Taisho Pharmaceutical Co., Ltd., priority 1987, dated 1990):

Assay: in vivo
Conditions: rat, blood, 50 mg/kg in 5% gum arabic, male wister rats, bioassay
Method: Three male wister rats (7 weeks old) for each group were administered orally with the test compounds, and the change of the concentration of the compound in blood was measured.
Dosage of the test compound:
50 mg/kg (suspended in 5% gum arabic)
Quantitative method: Bioasssay
(test bacterium: Escherichia coil SC507)

## CC1=C(C(=O)O)N2C(=O)[C@@H](NC(=O)[C@H](N)c3ccccc3)[C@H]2SC1 [Test compound B, Cephalexin]
Four Hours after oral administration
  concentration at 4 h: 4780 ng/mL
One Hour after oral administration
  concentration at 1 h: 14300 ng/mL
Two Hours after oral administration
  concentration at 2 h: 13700 ng/mL
